{"source": "paper PMC9643332", "about": "(Bioorganic Chemistry, 2022)", "molecular_target": "SARS-CoV-2 3CL^pro (Severe acute respiratory syndrome coronavirus 2, UniProt P0DTD1)", "assay_type": "biochemical", "data": [{"smiles": "CCCCCCCCCCCCCCCC[n+]1ccccc1", "note": "[Cetylpyridinium chloride monohydrate]", "values": [{"measurement": "inhibition of protease activity in primary screening", "value": "significantly inhibit"}]}]}
